Source: patent publication US20160331798A1, “NATURAL PRODUCT INHIBITORS OF 3DG” (Dynamis Pharmaceuticals, Inc., priority 2008, published 2016)

Assay: Endogenous 3DG concentrations in natural product and chemical samples (GC-MS)
Details: Concentration 100 mM, in PBS

SMILES	Levels of 3DG, 3DG Conc
NC[C@H]1CC[C@H](C(=O)O)CC1 [Tranexamic Acid, reference compound]	54.69 µM
Cl.N[C@H]1C(O)O[C@H](CO)[C@@H](O)[C@@H]1O (stereo partly drawn) [Glucosamine HCl, D-Glucosamine HCl]	1011.94 µM
